Consider 3 molecules from PubChem BioAssay AID310 (DTP/NCI, 2004).

This assay has as its system C3AKF1 mice, osteogenic sarcoma HE10734 s.c., tumor weight T/C. Put plainly: NCI In Vivo Anticancer Drug Screen. Data for tumor model Osteogenic Sarcoma HE 10734 (subcutaneous) in C3AKF1 (CHKRF1) mice. Particulars: T/C endpoint: mean tumor weight, schedule: Q01DX010 (ip), evaluation day not shown, higher T/C = larger tumour. The procedure:
The antitumor activity of compounds was measured in mice bearing transplantable tumors. Survival or tumor size were measured and the results are expressed as the measurement made in the treated group (T) divided by the measurement made in the vehicle treated control group (C). The tumor model used in this assay is Osteogenic Sarcoma HE 10734 (subcutaneous) in C3AKF1 (CHKRF1) mice

The structures appear in SMILES notation. The list is a part of this screen's results and no random one: it covers a few groups of compounds. Other doses and runs of a compound may be missing. T/C gives the treated animals as a percentage of the vehicle group. Some T/C values are marked as having no survivor count here; that says nothing about deaths at the dose. Schedule codes are those of the source, taken here to give the interval after Q, in days (D) or hours (H), and the number of doses after X. Some entries hold several experiments; the results are listed from low to high.

`COCc1c(CN(CCCl)CCCl)cnc(C)c1O`: the T/C is, setting by setting: (dose: 1.25 mg/kg/injection, vehicle: carboxymethylcellulose (CMC)) 106 % of control [survivor count not shown]; (dose: 2.5 mg/kg/injection, vehicle: carboxymethylcellulose (CMC)) 67 % of control [survivor count not shown]; (dose: 5.0 mg/kg/injection, vehicle: carboxymethylcellulose (CMC)) 64 % of control [survivor count not shown]; (dose: 10.0 mg/kg/injection, vehicle: carboxymethylcellulose (CMC)) 74 [survivor count not shown] and 116 % of control [survivor count not shown]; (dose: 15.0 mg/kg/injection, vehicle: carboxymethylcellulose (CMC)) 30 % of control [survivor count not shown].

On to `ClCCCCC(CCl)NCCCl` (stereo not drawn), for which the T/C (dose: 25.0 mg/kg/injection, vehicle: saline) is 46 % of control [survivor count not shown].

Consider `Cc1cc2nc(CN(CCCl)CCCl)[nH]c2cc1C`, for which the T/C was 66 % of control [survivor count not shown] (dose: 6.0 mg/kg/injection, vehicle: saline) and 19 % of control [survivor count not shown] (dose: 12.0 mg/kg/injection, vehicle: saline).
